Experimental findings from PMC4957051, “Molecular Mechanism of Z α1-Antitrypsin Deficiency*” (The Journal of Biological Chemistry, 2016) are described below.

Amino acid sequences for entries named in this document (tags omitted). A change or cut given only in a name is not applied to a line headed by its entry. Chains listed by the source or under a name are the forms on record and can include a tag or linker.
plasma-derived Z α1-antitrypsin (E342K) (P01009, form named): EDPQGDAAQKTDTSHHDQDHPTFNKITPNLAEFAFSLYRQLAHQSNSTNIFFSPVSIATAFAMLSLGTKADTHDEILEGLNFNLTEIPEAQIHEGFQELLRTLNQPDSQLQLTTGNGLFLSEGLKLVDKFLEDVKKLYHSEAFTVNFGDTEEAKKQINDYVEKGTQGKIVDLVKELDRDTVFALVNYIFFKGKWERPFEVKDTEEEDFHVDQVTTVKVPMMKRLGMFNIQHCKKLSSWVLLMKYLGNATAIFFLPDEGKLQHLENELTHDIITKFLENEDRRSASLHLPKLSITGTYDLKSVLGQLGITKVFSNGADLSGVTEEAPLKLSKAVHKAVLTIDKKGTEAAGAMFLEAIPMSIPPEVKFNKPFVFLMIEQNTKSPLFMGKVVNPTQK

No constants are given. Whether binding was seen depends on the method and setting. Some binding calls cover weakened binding; strength is not graded here.

The assay addresses plasma-derived Z α1-antitrypsin (E342K) (human) (UniProt P01009). The assay can be described thus: native gel or EMSA; peptide annealing: α1-AT variants (0.5 mg/ml) incubated with 100-fold molar excess of 6-mer peptide at 37 °C for different time intervals, then 8% native gel with 7 M urea; the binary complex resists urea; both purified.

Take FLEAIG [6-mer peptide (FLEAIG) derived from the P7 to P2 sequence of the α1-AT reactive loop]: the binding result is “binds”.
